Reference: publication PMC8801479

Tests used:
[1] = target: T1, anti-Müllerian hormone growth factor (AMH GF), the mature C-terminal domain (human) (UniProt P03971); assay: ELISA; AMHR2-Fc/Fc (0.75 ug/ml) captured on goat antihuman Fc Ab coated on the plate; c-AMH or GF serially diluted, 2 to 4 h; bound AMH detected with biotinylated mAb-C1 (GF) or mAb-N1 (prodomain) and SA-HRP; data fit to the quadratic equation for a reversible association reaction; both purified
T1 sequence: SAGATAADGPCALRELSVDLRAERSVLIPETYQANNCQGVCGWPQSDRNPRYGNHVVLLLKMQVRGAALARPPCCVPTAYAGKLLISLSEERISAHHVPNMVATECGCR

[2] = target: T1, anti-Müllerian hormone growth factor (AMH GF), the mature C-terminal domain (human); assay: ELISA; c-AMH captured on mAb-C1, incubated with AMHR2-Fc/Fc (33 nM) or buffer for 2 h; prodomain detected with biotinylated mAb-N1; both purified
[3] = target: T1, anti-Müllerian hormone growth factor (AMH GF), the mature C-terminal domain (human); assay: ELISA; c-AMH captured on anti-N-terminal mAb-N2; bound c-AMH detected with biotinylated mAb-N1 (prodomain) or mAb-C1 (GF); both purified

Measured: binding

anti-Müllerian hormone prodomain (N-terminal prodomain of c-AMH) (human) (domain or fragment)
binds: all assays above

These are yes or no findings as the source states them, for the method shown. Binding calls can cover weak binding; strength is not graded here.
